Assay: Body weight 3 months post-surgery
Assay type: in vivo, mice
Conditions: irrespective of drug treatment

With estrogen the “body weight of OVX+estrogen replaced group compared with SHAM” value was “not different from the SHAM operated group”.

Reference: patent US20100047233A1, “TREATMENT OF POST-MENOPAUSAL AND POST-HYSTERECTOMY MEDIATED COGNITIVE DISORDERS” (priority 2006, published 2010)
